Binding data for 1 molecule are collected here from paper PMC11848624.

Protein sequences, listed by entry. Tags and fused reporters are not part of them.
UniProt P19474: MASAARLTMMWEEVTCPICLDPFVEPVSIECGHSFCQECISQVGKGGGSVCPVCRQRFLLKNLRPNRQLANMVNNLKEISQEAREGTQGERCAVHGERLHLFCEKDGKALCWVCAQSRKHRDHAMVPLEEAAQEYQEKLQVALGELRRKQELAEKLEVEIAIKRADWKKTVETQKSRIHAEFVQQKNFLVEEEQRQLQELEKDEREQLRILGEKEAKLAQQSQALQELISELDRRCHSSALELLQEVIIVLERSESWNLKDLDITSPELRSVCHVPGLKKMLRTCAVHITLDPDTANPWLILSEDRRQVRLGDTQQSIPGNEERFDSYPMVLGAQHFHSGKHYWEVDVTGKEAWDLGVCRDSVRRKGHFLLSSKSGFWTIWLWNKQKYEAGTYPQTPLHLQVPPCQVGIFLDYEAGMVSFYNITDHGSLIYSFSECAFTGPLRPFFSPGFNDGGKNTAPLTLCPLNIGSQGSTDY

The target of the assay is TRIM21 overexpressed in PANC1 (UniProt P19474). In words: affinity purification with mass spectrometry; LC-MS/MS analysis on PANC1 cells overexpressing TRIM21, to identify proteins potentially interacting with TRIM21; how TRIM21 was isolated is not told.

No constants are given. Whether binding was seen depends on the method and setting. Binding seen in cells or lysates may run through a third protein. Here binding means that the protein was enriched with, or labelled near, the bait; the list need not be complete.

B1: EPHX1 (endogenous) (enzyme, UniProt P07099 1-455)
chain: MWLEILLTSVLGFAIYWFISRDKEETLPLEDGWWGPGTRSAAREDDSIRPFKVETSDEEIHDLHQRIDKFRFTPPLEDSCFHYGFNSNYLKKVISYWRNEFDWKKQVEILNRYPHFKTKIEGLDIHFIHVKPPQLPAGHTPKPLLMVHGWPGSFYEFYKIIPLLTDPKNHGLSDEHVFEVICPSIPGYGFSEASSKKGFNSVATARIFYKLMLRLGFQEFYIQGGDWGSLICTNMAQLVPSHVKGLHLNMALVLSNFSTLTLLLGQRFGRFLGLTERDVELLYPVKEKVFYSLMRESGYMHIQCTKPDTVGSALNDSPVGLAAYILEKFSTWTNTEFRYLEDGGLERKFSLDDLLTNVMLYWTTGTIISSQRFYKENLGQGWMTQKHERMKVYVPTGFSAFPFELLHTPEKWVRFKYPKLISYSYMVRGGHFAAFEEPELLAQDIRKFLSVLERQ
Turning to B1, the binding entry is on record as “binds”.
